The target in assay [1] is T1, MKL-1 in CD3+ T cells and Treg cells (human (in human CD3+ T cells and Treg cells)) (UniProt Q969V6).
T1 sequence: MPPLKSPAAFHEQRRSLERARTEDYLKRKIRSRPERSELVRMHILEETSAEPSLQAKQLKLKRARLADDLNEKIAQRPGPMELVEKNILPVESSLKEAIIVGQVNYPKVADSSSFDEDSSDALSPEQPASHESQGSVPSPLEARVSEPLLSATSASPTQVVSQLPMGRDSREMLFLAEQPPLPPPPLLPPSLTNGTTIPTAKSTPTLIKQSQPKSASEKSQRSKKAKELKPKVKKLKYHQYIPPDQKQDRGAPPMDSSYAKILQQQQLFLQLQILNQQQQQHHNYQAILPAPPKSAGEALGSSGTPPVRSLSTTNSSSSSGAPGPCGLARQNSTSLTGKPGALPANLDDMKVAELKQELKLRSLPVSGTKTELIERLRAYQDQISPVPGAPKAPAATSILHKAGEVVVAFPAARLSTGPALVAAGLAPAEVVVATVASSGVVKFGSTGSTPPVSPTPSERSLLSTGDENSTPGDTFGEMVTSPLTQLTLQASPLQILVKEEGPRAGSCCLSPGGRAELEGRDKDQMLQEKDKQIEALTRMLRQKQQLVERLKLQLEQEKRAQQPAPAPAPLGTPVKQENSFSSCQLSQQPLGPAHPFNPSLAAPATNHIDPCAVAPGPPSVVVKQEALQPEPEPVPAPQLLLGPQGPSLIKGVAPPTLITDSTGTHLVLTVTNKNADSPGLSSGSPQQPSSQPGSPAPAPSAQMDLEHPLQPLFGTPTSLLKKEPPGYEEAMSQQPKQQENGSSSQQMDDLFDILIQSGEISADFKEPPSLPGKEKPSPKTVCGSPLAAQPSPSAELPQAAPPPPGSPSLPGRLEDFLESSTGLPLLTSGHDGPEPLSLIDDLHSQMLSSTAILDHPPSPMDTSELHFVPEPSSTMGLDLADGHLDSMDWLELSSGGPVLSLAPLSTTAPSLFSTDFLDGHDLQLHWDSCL
Put plainly: co-IP; lysates of CD3+ T cells and of Treg cells; specific antibody overnight at 4 °C, Protein A/G Plus-agarose beads, Western blot. Background: In western blotting, separated proteins are transferred to a membrane and probed.

Chains of the proteins cited; added tags and fusions are not shown.
UniProt P51692: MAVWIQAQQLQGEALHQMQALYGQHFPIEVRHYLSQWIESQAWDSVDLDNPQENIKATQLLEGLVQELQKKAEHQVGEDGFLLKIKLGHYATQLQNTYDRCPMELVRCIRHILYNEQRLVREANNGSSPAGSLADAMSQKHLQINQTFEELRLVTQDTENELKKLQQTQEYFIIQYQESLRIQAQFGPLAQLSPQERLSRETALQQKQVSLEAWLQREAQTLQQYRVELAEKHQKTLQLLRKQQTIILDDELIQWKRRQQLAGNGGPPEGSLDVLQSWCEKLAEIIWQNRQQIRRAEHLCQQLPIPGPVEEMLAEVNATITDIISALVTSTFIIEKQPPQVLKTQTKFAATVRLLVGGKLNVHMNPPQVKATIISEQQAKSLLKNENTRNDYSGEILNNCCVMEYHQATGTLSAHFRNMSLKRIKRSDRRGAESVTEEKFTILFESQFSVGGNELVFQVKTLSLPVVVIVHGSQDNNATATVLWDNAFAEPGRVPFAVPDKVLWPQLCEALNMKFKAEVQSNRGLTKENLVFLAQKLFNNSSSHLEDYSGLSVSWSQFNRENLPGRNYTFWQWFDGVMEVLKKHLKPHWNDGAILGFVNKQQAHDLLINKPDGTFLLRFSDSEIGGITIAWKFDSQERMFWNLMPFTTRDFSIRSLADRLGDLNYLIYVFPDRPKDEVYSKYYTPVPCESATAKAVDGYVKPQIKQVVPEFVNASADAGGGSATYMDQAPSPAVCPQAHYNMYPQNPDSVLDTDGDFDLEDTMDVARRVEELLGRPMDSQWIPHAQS

For assay [2], the target named is T2, Myc-tagged MKL-1 (WT-MKL-1) (UniProt Q969V6).
T2 sequence: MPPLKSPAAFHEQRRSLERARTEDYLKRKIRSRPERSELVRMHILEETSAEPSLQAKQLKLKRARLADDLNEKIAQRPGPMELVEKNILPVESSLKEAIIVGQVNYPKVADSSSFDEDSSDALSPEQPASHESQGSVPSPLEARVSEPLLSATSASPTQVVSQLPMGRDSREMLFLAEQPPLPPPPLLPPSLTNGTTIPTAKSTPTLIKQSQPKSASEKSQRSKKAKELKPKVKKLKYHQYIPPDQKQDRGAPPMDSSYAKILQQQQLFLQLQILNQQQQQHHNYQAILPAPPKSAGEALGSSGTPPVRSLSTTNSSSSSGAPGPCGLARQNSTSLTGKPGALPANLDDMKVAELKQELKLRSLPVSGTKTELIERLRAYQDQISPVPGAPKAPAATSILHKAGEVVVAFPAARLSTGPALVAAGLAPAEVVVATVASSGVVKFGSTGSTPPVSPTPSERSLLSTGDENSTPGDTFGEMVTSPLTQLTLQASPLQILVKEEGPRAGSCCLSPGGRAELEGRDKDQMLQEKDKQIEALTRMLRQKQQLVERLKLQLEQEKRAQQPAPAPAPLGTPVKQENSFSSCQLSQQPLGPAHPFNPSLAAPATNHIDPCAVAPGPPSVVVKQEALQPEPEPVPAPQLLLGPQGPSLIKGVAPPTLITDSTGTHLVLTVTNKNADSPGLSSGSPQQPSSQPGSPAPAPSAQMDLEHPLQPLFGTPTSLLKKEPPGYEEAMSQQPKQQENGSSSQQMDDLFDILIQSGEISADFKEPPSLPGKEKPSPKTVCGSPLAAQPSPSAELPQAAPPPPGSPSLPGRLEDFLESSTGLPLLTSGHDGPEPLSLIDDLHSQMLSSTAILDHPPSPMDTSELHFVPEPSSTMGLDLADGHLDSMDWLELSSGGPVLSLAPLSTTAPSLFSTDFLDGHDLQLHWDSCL
Briefly: co-IP; cells transfected with Myc-MKL-1 and HA-SRF along with NR or STAT5b siRNA, or with empty vector or STAT5b and treated with IL-2 or DMSO; controls without antibody or without Myc transfection.

Assay [3] concerns the target T2, Myc-tagged MKL-1 (WT-MKL-1). Put plainly: co-IP; lysates of CD3+ T cells transfected with Flag-tagged STAT5b and Myc-tagged MKL-1 constructs, with or without IL-2; antibody overnight at 4 °C, Protein A/G Plus-agarose beads, Western blot.
The target is the same in assay [4]. Put plainly: co-IP; cells transfected with Myc-MKL-1 and HA-SRF along with NR or STAT5b siRNA, or with empty vector or STAT5b and treated with IL-2 or DMSO; controls without antibody or without Myc transfection. This is another data set of the same source.

These are yes or no findings as the source states them, for the method shown. Binding seen in cells or lysates may run through a third protein. Some results given as binding are weak or reduced against the parent protein; the word gives no strength. For some of these results: Sequences can lack the tags named with a protein.

For “STAT5b in CD3+ T cells and Treg cells (from UniProt P51692 1-787)”, the binding result in assay [1] is listed as “binds”.
Regarding “Flag-tagged STAT5b (WT-STAT5b) (from UniProt P51692 1-787)”, the binding entry in assay [2] and in assay [3] was “binds” in each case.

B1: HA-SRF (protein, UniProt P11831 1-508)
chain: MLPTQAGAAAALGRGSALGGSLNRTPTGRPGGGGGTRGANGGRVPGNGAGLGPGRLEREAAAAAATTPAPTAGALYSGSEGDSESGEEEELGAERRGLKRSLSEMEIGMVVGGPEASAAATGGYGPVSGAVSGAKPGKKTRGRVKIKMEFIDNKLRRYTTFSKRKTGIMKKAYELSTLTGTQVLLLVASETGHVYTFATRKLQPMITSETGKALIQTCLNSPDSPPRSDPTTDQRMSATGFEETDLTYQVSESDSSGETKDTLKPAFTVTNLPGTTSTIQTAPSTSTTMQVSSGPSFPITNYLAPVSASVSPSAVSSANGTVLKSTGSGPVSSGGLMQLPTSFTLMPGGAVAQQVPVQAIQVHQAPQQASPSRDSSTDLTQTSSSGTVTLPATIMTSSVPTTVGGHMMYPSPHAVMYAPTSGLGDGSLTVLNAFSQAPSTMQVSHSQVQEPGGVPQVFLTASSGTVQIPVSAVQLHQMAVIGQQAGSSSNLTELQVVNLDTAHSTKSE
For B1, in assay [4], the binding entry was “binds”.

For the origin of these results see paper PMC7350762.
